Reference: PubChem BioAssay AID1345085 (National Center for Advancing Translational Sciences (NCATS), 2018)
The inconclusive results got no clear call from the source; some entries with a clear call stand among them for comparison. A potency beside an inconclusive call is a rough fit, not a confirmed value. Activity calls are given as the source filed them. Calls follow the shape of the dose curve; as a rule, active = well fitted cell-killing curve with a large enough effect; inconclusive = small, poorly fitted or top-dose-only effect, or effect the other way; inactive = no such curve, though single readings can be large or run the other way.

tested on: Tov-21-G; assay: Confirmatory qHTS for gynecologic anti-cancer compounds from libraries of approved drugs and bioactive compounds; settings: gynecologic cancer cell panel viability, ATPlite luminescence, 48 h; series mostly up to 57.7 µM; activity change, negative = viability loss: at the top concentration; also: nearly all actives have a fitted effect of over 55% in size
Method in brief: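 1,000 cells/well; 16 h pre-incubation 37 C, 5% CO2; pin-transferred cpd in DMSO, 11 conc (1:3), 57.5 uM–0.977 nM; 48 h; ATPlite, 15 min RT; luminescence → IC50.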
% is scaled to controls: 0 for no effect and ±100 for the full control effect; potency is read from the fitted curve at half-maximal effect.

Compound | Potency | activity change, negative = viability loss
O=C(Nc1cn[nH]c1-c1nc2ccc(CN3CCOCC3)cc2[nH]1)NC1CC1 | inconclusive: 1.53 µM [cytotoxic, full curve] | 
CCN(CC)CCCC(C)Nc1ccnc2cc(Cl)ccc12 (stereo not given) | inconclusive: 0.053 µM [rising, partial curve, poor fit] | 
Cc1cnc(CNC(=O)c2c(=O)c3ccc(N4CCCN(C)CC4)nc3n3c2sc2ccccc23)cn1 | inconclusive: 0.0003 µM | 
CN1C2CCC1CC(OC(=O)[C@H](CO)c1ccccc1)C2 (stereo not given in full) | inconclusive: 24.3 µM [cytotoxic, partial curve, poor fit] | 
CCN(CC)CCCC(C)Nc1c2ccc(Cl)cc2nc2ccc(OC)cc12 (stereo not given) | active: 30.6 µM | 
CC(C)Oc1ccc2c(=O)c(-c3ccccc3)coc2c1 | inconclusive: 0.153 µM [rising, partial curve, poor fit] | 
CN(C)c1ccc2nc3ccc(=[N+](C)C)cc-3sc2c1 | inconclusive: 43.2 µM [cytotoxic, single point] | 
O=C(c1ccc(F)c(F)c1Nc1ccc(I)cc1F)N1CC(O)([C@@H]2CCCCN2)C1 | active: 9.68 µM | 
C[C@]12CCC(=O)C=C1CC[C@@H]1[C@@H]2[C@@H](O)C[C@@]2(C)[C@H]1CC[C@]2(O)C(=O)CO |  | inactive: 12%
N=C(N)c1ccc(OCCCCCOc2ccc(C(=N)N)cc2)cc1 | inconclusive: 19.3 µM [cytotoxic, partial curve, poor fit] | 
